This assay deals with CD2F1 mice, L1210 leukemia ip, survival T/C. In words: NCI In Vivo Anticancer Drug Screen. Data for tumor model L1210 Leukemia (intraperitoneal) in CD2F1 (CDF1) mice. As to conditions: higher T/C = longer survival. An outline of the steps:
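Mice carrying a transplanted tumor received test compound or vehicle alone. The value is the measurement in the treated group divided by that in the vehicle-treated control group.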

The mark [1] stands for this setting: T/C endpoint: mean survival time, dose: 400.0 mg/kg/injection, schedule: Q01DX001 (ip), vehicle: saline with Tween-80.
Where [2] appears, read: T/C endpoint: mean survival time, dose: 400.0 mg/kg/injection, schedule: Q01DX009 (ip), vehicle: saline with Tween-80.
[3] abbreviates: T/C endpoint: mean survival time, dose: 100.0 mg/kg/injection, schedule: Q01DX001 (ip), vehicle: saline with Tween-80.
[4] abbreviates: T/C endpoint: mean survival time, dose: 200.0 mg/kg/injection, schedule: Q01DX001 (ip), vehicle: saline with Tween-80.
[5] abbreviates: T/C endpoint: mean survival time, dose: 100.0 mg/kg/injection, schedule: Q04DX002 (ip), vehicle: saline with Tween-80.
The mark [6] stands for this setting: T/C endpoint: mean survival time, dose: 200.0 mg/kg/injection, schedule: Q01DX009 (ip), vehicle: saline with Tween-80.
[7] abbreviates: T/C endpoint: mean survival time, dose: 100.0 mg/kg/injection, schedule: Q04DX003 (ip), vehicle: saline with Tween-80.
[8] abbreviates: T/C endpoint: mean survival time, dose: 200.0 mg/kg/injection, schedule: Q04DX003 (ip), vehicle: saline with Tween-80.
Where [9] appears, read: T/C endpoint: mean survival time, dose: 400.0 mg/kg/injection, schedule: Q04DX003 (ip), vehicle: saline with Tween-80.

The list shows only some results of the screen, not a fair sample: it gathers tests that were run many times, whatever their T/C, doses with no T/C, and many T/C values between a quarter and a half above the control. Other doses and runs of a compound stand elsewhere. T/C: endpoint of the treated group in % of that of the vehicle group. Some doses have a count of surviving animals in place of a T/C: the source holds a T/C of zero for them, seemingly a mark for toxic or unscored doses. Some doses without a T/C left all or most animals alive at the check, yet need not have been tolerated: survival well below the control is almost never listed, so the zero probably covers shortened survival too. Counts of survivors are from the toxicity check (mostly the fifth day) where no day follows; animals may have died later. Schedules are NCI's codes, read here as Q, the interval in days (D) or hours (H), X, the number of doses. Some structures stand for samples that the source files as different forms (salt, stereo form or complex); doses refer to the form tested. For survival time, the PubChem record calls one and a half times the control and up active, and a quarter to a half above the control has no call in these data; cut-offs in other NCI protocols can differ.

Regarding `CCCNC(=O)NO`, the survivor count was 5 of 8 (T/C endpoint: mean survival time, dose: 62.0 mg/kg/injection, schedule: Q03HX024 (ip), vehicle: saline with Tween-80); 3 of 8 (T/C endpoint: mean survival time, dose: 93.0 mg/kg/injection, schedule: Q03HX024 (ip), vehicle: saline with Tween-80); 0 of 8 (T/C endpoint: mean survival time, dose: 140.0 mg/kg/injection, schedule: Q03HX024 (ip), vehicle: saline with Tween-80); 0 of 8 (T/C endpoint: mean survival time, dose: 210.0 mg/kg/injection, schedule: Q03HX024 (ip), vehicle: saline with Tween-80).

Regarding `COC(=O)/C(Br)=C/C(C)=O`, the survivor count under setting [1] is 0 of 3.

Take `O=C1OC(=O)c2c1ccc1ccc(Cl)cc21`: under setting [2], the survivor count is recorded as 1 of 6.

As to `Cc1cccc(/C=N\OCc2ccccc2)n1`, the survivor count under setting [2] is on record as 3 of 6.

For `CCC1(O)C(=O)OCc2c1cc1n(c2=O)Cc2cc3ccc(N)cc3nc2-1` (stereo not drawn), the T/C is 125 % of control (T/C endpoint: median survival time, dose: 10.0 mg/kg/injection, schedule: Q04DX002 (ip), vehicle: saline with Tween-80); 131 % of control (T/C endpoint: median survival time, dose: 20.0 mg/kg/injection, schedule: Q04DX002 (ip), vehicle: saline with Tween-80); 147 % of control (T/C endpoint: median survival time, dose: 40.0 mg/kg/injection, schedule: Q04DX002 (ip), vehicle: saline with Tween-80); 125 % of control (T/C endpoint: median survival time, dose: 80.0 mg/kg/injection, schedule: Q04DX002 (ip), vehicle: saline with Tween-80).

Regarding `C/C(=N/N(C)C)c1ccc2ccccc2c1`, the survivor count runs as follows: (T/C endpoint: mean survival time, dose: 50.0 mg/kg/injection, schedule: Q01DX009 (ip), vehicle: saline with Tween-80) 1 of 6; under setting [3], 1 of 6; under setting [4], 0 of 6; under setting [1], 0 of 6.

With `COc1ccc(C(CO)CC(=O)NCCN(C)C)cc1` (stereo not drawn), the survivor count (T/C endpoint: mean survival time, dose: 400.0 mg/kg/injection, schedule: Q04DX002 (ip), vehicle: saline) was 3 of 3.

Turning to `O=NN(CCCl)C(=O)NC1CCN(Cc2ccccc2)CC1`, the T/C (T/C endpoint: mean survival time, dose: 25.0 mg/kg/injection, schedule: Q01DX001 (ip), vehicle: saline with Tween-80) was 148 % of control. Further, the survivor count under setting [4] is recorded as 5 of 6.

Take `CCCCC[CH2][Sn]([I])([CH2]C)[CH2]C`: the survivor count (T/C endpoint: mean survival time, dose: 6.25 mg/kg/injection, schedule: Q01DX009 (ip), vehicle: saline with Tween-80) was 2 of 6; the survivor count (T/C endpoint: mean survival time, dose: 12.5 mg/kg/injection, schedule: Q01DX009 (ip), vehicle: saline with Tween-80) was 0 of 6; the survivor count (T/C endpoint: mean survival time, dose: 25.0 mg/kg/injection, schedule: Q01DX009 (ip), vehicle: saline with Tween-80) is recorded as 0 of 6; the survivor count (T/C endpoint: mean survival time, dose: 25.0 mg/kg/injection, schedule: Q04DX002 (ip), vehicle: saline with Tween-80) was 0 of 3; the survivor count (T/C endpoint: mean survival time, dose: 50.0 mg/kg/injection, schedule: Q04DX002 (ip), vehicle: saline with Tween-80) is recorded as 0 of 3; the survivor count under setting [5] is 0 of 3.

For `O=C(N/N=C\c1ccc(F)cc1)N/N=C/c1ccc(F)cc1`, the survivor count (T/C endpoint: mean survival time, dose: 100.0 mg/kg/injection, schedule: Q01DX009 (ip), vehicle: saline with Tween-80) is recorded as 3 of 3.

With `COc1ccc(SC(=O)N(C)C)cc1`, the survivor count is 3 of 6 under setting [6] and 3 of 6 under setting [2].

Consider `CC(C)(SC(c1ccccc1)(c1ccccc1)c1ccccc1)C(N)C(=O)O` (stereo not drawn), for which the survivor count is listed as 0 of 6 (T/C endpoint: mean survival time, dose: 100.0 mg/kg/injection, schedule: Q01DX009 (ip), vehicle: saline); 0 of 6 (T/C endpoint: mean survival time, dose: 200.0 mg/kg/injection, schedule: Q01DX009 (ip), vehicle: saline); 0 of 6 (T/C endpoint: mean survival time, dose: 300.0 mg/kg/injection, schedule: Q01DX009 (ip), vehicle: saline); 0 of 6 (T/C endpoint: mean survival time, dose: 400.0 mg/kg/injection, schedule: Q01DX009 (ip), vehicle: saline).

On to `COC(=O)[C@H]1[C@H]2C[C@@H]3c4[nH]c5cc(OC)ccc5c4CCN3C[C@H]2C[C@@H](OC(=O)/C=C/c2cc(OC)c(OC)c(OC)c2)[C@@H]1OC`, for which the survivor count is on record as 0 of 6 under setting [7], 0 of 6 under setting [8] and 0 of 6 under setting [9].

Take `C1CCC2C[N-]CCC2C1.C1CCC2C[N-]CCC2C1.C1CCC2C[N-]CCC2C1.C1CCC2C[N-]CCC2C1.[I][Fe][I]` (stereo not drawn): under setting [9], the survivor count is 0 of 6.

`Nc1ncnc(N)c1N`: the T/C runs as follows: under setting [6], 131 % of control; under setting [2], 131 % of control.

As to `NC(Cc1ccc(N(CCCl)CCCl)cc1)C(=O)O` (stereo not drawn), the T/C runs as follows: (T/C endpoint: mean survival time, dose: 5.0 mg/kg/injection, schedule: Q01DX007 (ip), vehicle: Klucel (hydroxypropylcellulose) (HPC)) 147 % of control; (T/C endpoint: mean survival time, dose: 5.0 mg/kg/injection, schedule: Q01DX007 (ip), vehicle: saline with Tween-80) 144 % of control; (T/C endpoint: mean survival time, dose: 5.0 mg/kg/injection, schedule: Q03DX003 (ip), vehicle: Klucel (hydroxypropylcellulose) (HPC)) 139 % of control; (T/C endpoint: mean survival time, dose: 5.0 mg/kg/injection, schedule: Q04DX003 (ip), vehicle: Klucel (hydroxypropylcellulose) (HPC)) 132 % of control; (T/C endpoint: mean survival time, dose: 10.0 mg/kg/injection, schedule: Q01DX007 (ip), vehicle: Klucel (hydroxypropylcellulose) (HPC)) 138 % of control; (T/C endpoint: mean survival time, dose: 10.0 mg/kg/injection, schedule: Q01DX007 (ip), vehicle: saline with Tween-80) 134 % of control. In addition, the T/C (T/C endpoint: mean survival time, dose: 20.0 mg/kg/injection, schedule: Q03DX003 (ip), vehicle: Klucel (hydroxypropylcellulose) (HPC)) is 140 % of control. Further, the survivor count (T/C endpoint: median survival time, dose: 32.0 mg/kg/injection, schedule: Q01DX009 (ip), vehicle: saline) was 4 of 6.

Consider `CCOC(=O)C(Cc1ccccc1C(=O)NC)c1ccccc1` (stereo not drawn), for which the survivor count runs as follows: (T/C endpoint: mean survival time, dose: 100.0 mg/kg/injection, schedule: Q01DX009 (ip), vehicle: saline sonified) 6 of 6; (T/C endpoint: mean survival time, dose: 200.0 mg/kg/injection, schedule: Q01DX009 (ip), vehicle: saline sonified) 6 of 6.

`CC(=O)N1CCC2(CC1)SSC1(CCN(C(C)=O)CC1)S2`: the survivor count is on record as 0 of 6 under setting [7], 0 of 6 under setting [8] and 0 of 6 under setting [9].

Consider `Cc1ccc(S(=O)(=O)/C=C(\I)c2ccc([N+](=O)[O-])cc2)cc1`, for which the survivor count (T/C endpoint: mean survival time, dose: 200.0 mg/kg/injection, schedule: Q04DX003 (ip), vehicle: saline) is 0 of 6.

Consider `O=C(Nc1ccc(O)cc1)c1c(O)[nH]c(=S)[nH]c1=O`, for which, for the setting “T/C endpoint: median survival time, dose: 200.0 mg/kg/injection, schedule: Q01DX009 (ip), vehicle: saline with Tween-80”, the survivor count is recorded as 3 of 6.

In the case of `CC1NC(=O)OC1(C)c1ccccc1` (stereo not drawn), the survivor count (T/C endpoint: mean survival time, dose: 400.0 mg/kg/injection, schedule: Q04DX002 (ip), vehicle: saline with Tween-80) is on record as 1 of 3.

For the molecule `CC(C)NC(C)C`, the survivor count under setting [5] was 3 of 3.

With `CCOC(=O)C(=CCBr)C(=O)OCC`, the survivor count (T/C endpoint: mean survival time, dose: 25.0 mg/kg/injection, schedule: Q01DX009 (ip), vehicle: other) is 2 of 6; the survivor count (T/C endpoint: mean survival time, dose: 50.0 mg/kg/injection, schedule: Q01DX009 (ip), vehicle: other) is given as 0 of 6; the survivor count (T/C endpoint: mean survival time, dose: 100.0 mg/kg/injection, schedule: Q01DX009 (ip), vehicle: other) is on record as 0 of 6; the survivor count (T/C endpoint: mean survival time, dose: 200.0 mg/kg/injection, schedule: Q01DX009 (ip), vehicle: other) is given as 0 of 6; the survivor count (T/C endpoint: mean survival time, dose: 400.0 mg/kg/injection, schedule: Q01DX009 (ip), vehicle: other) is 0 of 6.

For the molecule `CC(C)CCNC(=O)CI`, the survivor count (T/C endpoint: mean survival time, dose: 400.0 mg/kg/injection, schedule: Q01DX001 (ip), vehicle: saline) is recorded as 1 of 4.

For `OC(c1ccccc1)C1CCN(Cc2ccccc2)CC1` (stereo not drawn), the survivor count is given as 2 of 6 under setting [8] and 0 of 6 under setting [9].

Take `CCC[CH2][Sn]([Cl])([Cl])[CH2]CCC`: the survivor count is, setting by setting: under setting [7], 0 of 6; under setting [8], 0 of 6; under setting [9], 0 of 6.

For the molecule `CC(C)C(O)C(C)[N+](=O)[O-]` (stereo not drawn), the survivor count runs as follows: under setting [3], 0 of 3; under setting [4], 0 of 3; under setting [1], 0 of 3.

The record behind these values is PubChem BioAssay AID256 (DTP/NCI, 2004).
